Results as given in the supplement of paper PMC11060735.
Counter-ions that a name gives are not always drawn. ± gives the standard deviation of the averaged measurements. In all, about 1,800 compounds were measured (“GFP- (p16Ink4a-) cell count relative to negative-control wells”: median about 0.99, lowest 2% from about 0.5 on). The list shows a part of the results.

Each molecule was assayed on mouse p16Ink4a+/- lung fibroblasts (INKBRITE, bleomycin-injured) (assay: GFP- (p16Ink4a-) cell count relative to negative-control wells (fold of vehicle); higher = more p16Ink4a- cells surviving). Conditions: 1 µM; 3 days.

Compound	GFP-
Cn1c([N+](=O)[O-])cnc1COC(N)=O [Ronidazole]	1.04
CCN1CCN(c2ccc(Nc3cc(N(C)C(=O)Nc4c(Cl)c(OC)cc(OC)c4Cl)ncn3)cc2)CC1	1.04
NCC(=O)CCC(=O)O [Aminolevulinic acid]	1.01
Cc1ccc(C)c(OCCCC(C)(C)C(=O)O)c1 [Gemfibrozil]	1.04
O=C(O)C[C@H](O)C[C@H](O)/C=C/c1c(C2CC2)nc2ccccc2c1-c1ccc(F)cc1 [Pitavastatin Calcium]	0.836
C[C@@H](O)[C@H]1C(=O)N2C(C(=O)O)=C(S[C@@H]3CN[C@H](CNS(N)(=O)=O)C3)[C@H](C)[C@H]12 [Doripenem]	1.07
Cn1cnc(N)c2ncnc1-2 [3-Methyladenine]	0.988
C=CCNC(N)=S [Allylthiourea]	1.17
Nc1ccc(C(=O)NCC(=O)O)cc1 [Aminohippuric Acid]	1.06
COc1cc(Nc2nc3ccccc3nc2NS(=O)(=O)c2ccc(NC(=O)c3ccc(C)c(OC)c3)cc2)cc(OC)c1	0.961
COc1cc2c(cc1Cc1cccc(Cl)c1F)c(=O)c(C(=O)O)cn2[C@H](CO)C(C)C [Elvitegravir]	1.11
Cc1cnc(Nc2ccc(OCCN3CCCC3)cc2)nc1Nc1cccc(S(=O)(=O)NC(C)(C)C)c1	0.924 ± 0.17
NS(=O)(=O)Cc1noc2ccccc12 [Zonisamide]	1.33
CCc1cc2c(cc1N1CCC(N3CCOCC3)CC1)C(C)(C)c1[nH]c3cc(C#N)ccc3c1C2=O [Alectinib]	1.08
Cc1ccc2nc(NCCN)c3ncc(C)n3c2c1	1.01
COc1ccc2cc1Oc1ccc(cc1)C[C@H]1c3cc(c(OC)cc3CCN1C)Oc1c(OC)c(OC)cc3c1[C@H](C2)N(C)CC3 [Tetrandrine]	0.963
CN(C)CCC(c1ccccc1)c1ccccn1 (stereo not given) [Pheniramine]	0.968
C[N+]1(C)[C@@H]2C[C@@H](OC(=O)C(O)(c3cccs3)c3cccs3)C[C@H]1[C@@H]1O[C@@H]12 [Tiotropium]	1.03
NC(=O)c1cnc(N[C@@H]2CCCC[C@H]2N)nc1Nc1cccc(-n2nccn2)c1	0.883
O=C(Nc1cccc(Nc2ncc(Br)c(NCCc3c[nH]cn3)n2)c1)N1CCCC1	1.11
CCCNC(C)C(=O)Nc1c(C)csc1C(=O)OC (stereo not given) [Articaine]	0.965
CC(C)(Sc1cc(C(C)(C)C)c(O)c(C(C)(C)C)c1)Sc1cc(C(C)(C)C)c(O)c(C(C)(C)C)c1 [Probucol]	1.06
C#C[C@]1(O)CC[C@H]2[C@@H]3CCC4=CC(=O)CC[C@@H]4[C@H]3CC[C@@]21CC [Levonorgestrel]	1.05
CNCc1ccc(C)c(NC(=O)c2ccc(Nc3nc(-c4ccccc4)c4ccccc4n3)cc2)c1	1.06
CC(=O)O[C@H]1C[C@@H]2CC[C@@H]3[C@H](CC[C@@]4(C)[C@H]3C[C@H]([N+]3(C)CCCCC3)[C@@H]4OC(C)=O)[C@@]2(C)C[C@@H]1N1CCCCC1 [Vecuronium]	1.03

Random excerpt: 4 compounds from above
Compound	GFP-
C=CCNC(N)=S [Allylthiourea]	1.17
C[C@@H](O)[C@H]1C(=O)N2C(C(=O)O)=C(S[C@@H]3CN[C@H](CNS(N)(=O)=O)C3)[C@H](C)[C@H]12 [Doripenem]	1.07
NCC(=O)CCC(=O)O [Aminolevulinic acid]	1.01
CCN1CCN(c2ccc(Nc3cc(N(C)C(=O)Nc4c(Cl)c(OC)cc(OC)c4Cl)ncn3)cc2)CC1	1.04

(cont.)

Compound	GFP-
CC(C)c1nc(N(C)S(C)(=O)=O)nc(-c2ccc(F)cc2)c1/C=C/[C@@H](O)C[C@@H](O)CC(=O)O [Rosuvastatin, Rosuvastatin Calcium]	1.03
COc1cc(/C=C/C(=O)N2CCN(CC(=O)N3CCCC3)CC2)cc(OC)c1OC [Cinepazide maleate]	1.05
COc1cccc2c1C(=O)c1c(O)c3c(c(O)c1C2=O)C[C@@](O)(C(=O)CO)C[C@@H]3O[C@H]1C[C@H](N)[C@H](O[C@@H]2CCCCO2)[C@H](C)O1 [Pirarubicin]	0.81
COC(=O)CCSCc1ccc(-c2onc(C)c2NC(=O)OC(C)c2ccccc2Cl)cc1 (stereo not given)	0.932
CCCCNc1ccc(C(=O)OCCN(C)C)cc1 [Tetracaine]	1.13
CN[C@@H](C)C(=O)N[C@H](C(=O)N1CCC[C@H]1C(=O)Nc1snnc1-c1ccccc1)C1CCCCC1	1.31
COc1cc(NS(=O)(=O)c2ccc(N)cc2)nc(OC)n1 [Sulfadimethoxine]	0.986
Cc1cc(Nc2cc(N3CCN(C)CC3)nc(/C=C/c3ccccc3)n2)n[nH]1	0.65 ± 0.11
O=S(=O)(c1ccccc1)N(CC(F)(F)F)c1ccc(C(O)(C(F)(F)F)C(F)(F)F)cc1	0.972
COc1ccnc2[nH]cc(C(=O)C(=O)N3CCN(C(=O)c4ccccc4)C[C@H]3C)c12	1.01
Cc1cccc(-c2[nH]ncc2-c2ccc3ncccc3n2)n1	1.3
Cn1cc(-c2ccc3nnc(C(F)(F)c4ccc5ncccc5c4)n3n2)cn1	0.945
NS(=O)(=O)c1ccc(NC(=O)Nc2ccc(F)cc2)cc1	1.06
COc1ccc2ccc(=O)oc2c1CC=C(C)C [Osthol]	1.09
Cc1cc(F)c(Nc2ncnc3cc(OCc4ccccc4)ccc23)cc1O	1.1
Cc1cc(C(C)(C)C)cc(C)c1CC1=NCCN1 [Xylometazoline]	1.04
COc1ccc(S(=O)(=O)N(C(C)=O)c2ccccc2/C=C/c2cc[n+]([O-])cc2)cc1	0.564
Cn1cncc1[C@@](N)(c1ccc(Cl)cc1)c1ccc2c(c1)c(-c1cccc(Cl)c1)cc(=O)n2C [Tipifarnib]	0.666
CNC(=O)[C@H](Cc1ccccc1)NC(=O)[C@H](CC(C)C)[C@H](CSc1cccs1)C(=O)NO [Batimastat]	1.08
COc1cc2ncnc(Nc3ccc(O)c(Br)c3)c2cc1OC	0.883 ± 0.044
CCCC(=O)Nc1cccc(NC(=O)c2ccccc2Br)c1	1.03
C#CCC(Cc1cnc2nc(N)nc(N)c2n1)c1ccc(C(=O)N[C@@H](CCC(=O)O)C(=O)O)cc1 (stereo not given in full) [Pralatrexate]	0.846
CO/N=C(\C(=O)N[C@@H]1C(=O)N2C(C(=O)OCOC(=O)C(C)(C)C)=C(/C=C\c3scnc3C)CS[C@H]12)c1csc(N)n1 [Cefditoren Pivoxil]	0.786
CC(=O)OCC(=O)[C@@]12OC(C)(C)O[C@@H]1C[C@H]1[C@@H]3C[C@H](F)C4=CC(=O)C=C[C@]4(C)[C@@]3(F)[C@@H](O)C[C@@]12C [Fluocinonide]	1.01
CC1=NN(c2ccc(C(=O)O)cc2)C(=O)/C1=C\c1ccc(-c2cc(C)c(C)cc2[N+](=O)[O-])o1	1.04 ± 0.047
